Reference: article PMC11187247
These are yes or no findings as the source states them, for the method shown. Binding seen in cells or lysates may run through a third protein. Some results given as binding are weak or reduced against the parent protein; the word gives no strength.

Amino acid sequences for entries named in this document (tags omitted).
UniProt Q96AC1: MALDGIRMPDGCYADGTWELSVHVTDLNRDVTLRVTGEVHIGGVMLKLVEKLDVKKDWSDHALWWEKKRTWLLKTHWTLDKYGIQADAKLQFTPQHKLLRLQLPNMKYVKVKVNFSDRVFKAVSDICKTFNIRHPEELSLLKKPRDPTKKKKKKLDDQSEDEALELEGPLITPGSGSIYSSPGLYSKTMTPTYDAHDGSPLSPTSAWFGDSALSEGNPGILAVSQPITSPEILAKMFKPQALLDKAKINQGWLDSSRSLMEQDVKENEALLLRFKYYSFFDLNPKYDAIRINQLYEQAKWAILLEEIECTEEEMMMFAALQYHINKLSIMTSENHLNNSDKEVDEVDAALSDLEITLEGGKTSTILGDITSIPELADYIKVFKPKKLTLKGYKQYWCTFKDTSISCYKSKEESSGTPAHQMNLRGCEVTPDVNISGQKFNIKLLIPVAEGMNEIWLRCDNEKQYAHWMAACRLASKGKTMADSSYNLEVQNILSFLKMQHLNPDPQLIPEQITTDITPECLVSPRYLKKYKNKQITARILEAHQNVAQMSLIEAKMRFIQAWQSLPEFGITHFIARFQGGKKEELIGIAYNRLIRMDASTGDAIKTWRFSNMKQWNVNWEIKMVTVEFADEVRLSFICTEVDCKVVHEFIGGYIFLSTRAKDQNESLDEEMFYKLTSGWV

Key:
Assay in all cases: pull-down; biotinylated peptides on streptavidin Dynabeads M-280; 200 μg protein extracts of HUVEC in PBST, overnight at 4°C under shaking; western blot with anti-KINDLIN2; only the target purified
[1] = biological target: T1, Biotinylated Integrin beta 1 peptide pep_Ac-K794 (human)
T1 sequence (peptide, biotin on the N-terminus; acetyl-lysine at K794): GSAKSAVTTVVNPKYEGK

[2] = biological target: T2, Biotinylated Integrin beta 1 peptide pep_K794Q (human)
T2 sequence (peptide, biotin on the N-terminus): GSAKSAVTTVVNPQYEGK

[3] = biological target: T3, Biotinylated Integrin beta 1 peptide pep_K794R (human)
T3 sequence (peptide, biotin on the N-terminus): GSAKSAVTTVVNPRYEGK

Measured: binding

KINDLIN2 (endogenous, HUVEC) (from UniProt Q96AC1 1-680)
binds: all assays above
